Results deposited as PubChem BioAssay AID1259254 (NCATS, 2017).

Test: 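Gene knock-downs that lead to re-replication, shown by excess G2 DNA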 (primary screen)
System: human HCT116 colorectal cancer cells
Reagent: single siRNA against human genes
Duration: 3 days
Read-out: 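Nuclei stained with Hoechst and imaged; cell-cycle phase assigned by DNA content; G2 share scaled per plate, non-targeting siRNA 0%, GMNN siRNA 100%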
Reading the numbers: G2 robust z-score and G2 cells, % of GMNN control: higher = more G2 cells, more excess DNA replication
Rule for the call: 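An siRNA counts as active if its G2 robust z-score lies at least 5 MADs above the screen median; here such calls match roughly 38% of GMNN control or more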
The deposit covers about 59,000 reagents; below is an unselected part. About 1,550 of all reagents (2.6%) were called active. 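G2 share is only a proxy for re-replication; each gene was hit by three separate siRNAs, and active genes were retested.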 Reagents against one gene are numbered here. Further read-outs or replicates are left out here. Not given: the amount of reagent.

| G2 robust z-score | G2 cells, % of GMNN control | Call | gene | siRNA no. |
| --- | --- | --- | --- | --- |
| -0.645 | -1.57 | inactive | PCDHGA1 | 1 |
| -1.19 | -5.43 | inactive | PCDHGA1 | 2 |
| 0.269 | 4.86 | inactive | PCDHGA1 | 3 |
| -0.409 | 0.0918 | inactive | TTC8 | 1 |
| 0.801 | 8.6 | inactive | TTC8 | 2 |
| 0.602 | 7.2 | inactive | TTC8 | 3 |
| 0.579 | 7.04 | inactive | MED21 | 1 |
| -0.05 | 2.62 | inactive | MED21 | 2 |
| -1 | -4.09 | inactive | MED21 | 3 |
| -0.825 | -2.84 | inactive | BCLAF1 | 1 |
| -0.66 | -1.68 | inactive | BCLAF1 | 2 |
| -0.0298 | 2.76 | inactive | BCLAF1 | 3 |
| -0.871 | -3.16 | inactive | EXTL1 | 1 |
| 1.21 | 11.5 | inactive | EXTL1 | 2 |
| -0.627 | -1.45 | inactive | EXTL1 | 3 |
| 0.474 | 6.3 | inactive | IFT56 | 1 |
| -0.236 | 1.31 | inactive | IFT56 | 2 |
| -0.84 | -2.94 | inactive | IFT56 | 3 |
| -1.17 | -5.29 | inactive | KIF3A | 1 |
| -0.484 | -0.441 | inactive | KIF3A | 2 |
| -0.455 | -0.236 | inactive | KIF3A | 3 |

Entries above whose gene name begins with M or m (3):
| G2 robust z-score | G2 cells, % of GMNN control | Call | gene | siRNA no. |
| --- | --- | --- | --- | --- |
| 0.579 | 7.04 | inactive | MED21 | 1 |
| -0.05 | 2.62 | inactive | MED21 | 2 |
| -1 | -4.09 | inactive | MED21 | 3 |

The list goes on.
| G2 robust z-score | G2 cells, % of GMNN control | Call | gene | siRNA no. |
| --- | --- | --- | --- | --- |
| 4 | 31.1 | inactive | PARL | 1 |
| 5.77 | 43.5 | active | PARL | 2 |
| -0.361 | 0.429 | inactive | PARL | 3 |
| -0.129 | 2.06 | inactive | GSX2 | 1 |
| 5.14 | 39.1 | active | GSX2 | 2 |
| -0.38 | 0.291 | inactive | GSX2 | 3 |
| 1.27 | 11.9 | inactive | TRIM16L | 1 |
| -0.343 | 0.551 | inactive | TRIM16L | 2 |
| -0.325 | 0.681 | inactive | TRIM16L | 3 |
| 0.2 | 4.37 | inactive | RFX7 | 1 |
| 1.15 | 11 | inactive | RFX7 | 2 |
| -0.547 | -0.881 | inactive | RFX7 | 3 |
| 0.283 | 4.96 | inactive | GMEB1 | 1 |
| -0.252 | 1.19 | inactive | GMEB1 | 2 |
| 0.133 | 3.9 | inactive | GMEB1 | 3 |
| -0.0765 | 2.43 | inactive | CEACAM20 | 1 |
| -0.676 | -1.79 | inactive | CEACAM20 | 2 |
| 0.898 | 9.28 | inactive | CEACAM20 | 3 |
| 4.04 | 31.4 | inactive | HPN | 1 |
| 7.51 | 55.8 | active | HPN | 2 |
| -0.74 | -2.24 | inactive | HPN | 3 |
| -0.0671 | 2.5 | inactive | RFPL4B | 1 |
| -0.129 | 2.06 | inactive | RFPL4B | 2 |
| 0.603 | 7.21 | inactive | RFPL4B | 3 |
| 2.3 | 19.2 | inactive | SELENOH | 1 |
| 0.266 | 4.84 | inactive | SELENOH | 2 |
| -0.236 | 1.3 | inactive | SELENOH | 3 |
